These are yes or no findings as the source states them, for the method shown. Binding seen in cells or lysates may run through a third protein. Some results given as binding are weak or reduced against the parent protein; the word gives no strength. Sequences can lack the tags named with a protein.

Drawing on doi:10.1101/2025.10.03.680249, this text covers binding for one molecule.

The assay has as its target NPF6.2, BiFC fusion expressed in Nicotiana benthamiana (Arabidopsis) (UniProt Q9SZY4). Briefly: split reporter.

B1: NPF6.2, BiFC fusion expressed in Nicotiana benthamiana (protein, UniProt Q9SZY4 1-577)
chain: MESKGSWTVADAVDYKGRPADKSKTGGWITAALILGIEVVERLSTMGIAVNLVTYLMETMHLPSSTSANIVTDFMGTSFLLCLLGGFLADSFLGRFKTIGIFSTIQALGTGALAVATKLPELRPPTCHHGEACIPATAFQMTILYVSLYLIALGTGGLKSSISGFGSDQFDDKDPKEKAHMAFFFNRFFFFISMGTLLAVTVLVYMQDEVGRSWAYGICTVSMAIAIVIFLCGTKRYRYKKSQGSPVVQIFQVIAAAFRKRKMELPQSIVYLYEDNPEGIRIEHTDQFHLLDKAAIVAEGDFEQTLDGVAIPNPWKLSSVTKVEEVKMMVRLLPIWATTIIFWTTYAQMITFSVEQASTMRRNIGSFKIPAGSLTVFFVAAILITLAVYDRAIMPFWKKWKGKPGFSSLQRIAIGLVLSTAGMAAAALVEQKRLSVAKSSSQKTLPISVFLLVPQFFLVGAGEAFIYTGQLDFFITQSPKGMKTMSTGLFLTTLSLGFFVSSFLVSIVKRVTSTSTDVGWLADNINHGRLDYFYWLLVILSGINFVVYIICALWFKPTKGKDSVEKENGKGFSVEDC
B1: the binding entry was “binds”.
